Reference: US8822517B2, “Arylosulfonamides for the treatment of CNS diseases” (Adamed SP. Z O.O., priority 2010, dated 2014)
At least one compound was matched to its structure with a doubt left.

What was measured:
adrenergic α1 receptor = experiment: Binding assay α1 (non-selective), [3H]prazosin, rat cerebral cortex; conditions: percent inhibition of control specific binding; compounds tested at 1×10^−6 M
Description: (§1) The specific ligand binding to the receptors is defined as the difference between the total binding and the nonspecific binding determined in the presence of an excess of so unlabelled ligand.
(§2) The specific Ligand binding to the receptor is defined as the difference between total and non-specific binding determined in the presence of an excess of unlabelled ligand. The compounds were tested at a concentration of 1×10^−6 M, and scintillation counting was the method of detection of ligand binding.

sigma σ receptor = experiment: Binding assay σ (non-selective), [3H]DTG, rat cerebral cortex; conditions: percent inhibition of control specific binding; compounds tested at 1×10^−6 M
Description: as §1, §2

| Compound | α1 [%] (adrenergic α1 receptor) | σ [%] (sigma σ receptor) |
| --- | --- | --- |
| O=S(=O)(NCCCCN1CCC(c2noc3cc(F)ccc23)CC1)c1cccc2ccccc12 [Compound 17, N-[4-[4-(6-Fluoro-1,2-benzoxazol-3-yl)piperidin-1-yl]butyl]naphthalene-1-sulphonamide] | 100 | 83 |
| O=S(=O)(NCCCCN1CCC(c2noc3cc(F)ccc23)CC1)c1ccc2ccccc2c1 [Compound 18, N-[4-[4-(6-Fluoro-1,2-benzoxazol-3-yl)piperidin-1-yl]butyl]naphthalene-2-sulphonamide] | 101 | 70 |
| O=S(=O)(NCCCN1CCC(c2noc3cc(F)ccc23)CC1)c1ccc2cc(Cl)ccc2c1 [Compound 98, 6-Chloro-N-[3-[4-(6-fluoro-1,2-benzoxazol-3-yl)piperidin-1-yl]propyl]naphthalene-2-sulphonamide] | 97 | 50 |
| O=S(=O)(NCCCN1CCC(c2noc3cc(F)ccc23)CC1)c1cccc(Cl)c1 [Compound 106, 3-Chloro-N-[3-[4-(6-fluoro-1,2-benzoxazol-3-yl)piperidin-1-yl]propyl]benzenesulphonamide] | 101 |  |
| O=S(=O)(NCCCN1CCC(c2noc3cc(F)ccc23)CC1)c1cccc(Br)c1 [Compound 110, 3-Bromo-N-[3-[4-(6-fluoro-1,2-benzoxazol-3-yl)piperidin-1-yl]propyl]benzenesulphonamide] | 103 |  |
| O=S(=O)(NCCCN1CCN(c2nsc3ccccc23)CC1)c1ccc(Cl)cc1 [Compound 250, N-[3-[4-(1,2-Benzothiazol-3-yl)piperazin-1-yl]propyl]-4-chlorobenzenesulphonamide] | 95 |  |
| O=S(=O)(NCCCN1CCC(c2noc3cc(F)ccc23)CC1)c1ccc(Cl)cc1 [Compound 328, 4-Chloro-N-[3-[4-(6-fluoro-1,2-benzoxazol-3-yl)piperidin-1-yl]propyl]benzenesulphonamide] | 101 |  |
| O=S(=O)(NCCCN1CCC(c2noc3cc(F)ccc23)CC1)c1ccc(Br)cc1 [Compound 330, 4-Bromo-N-[3-[4-(6-fluoro-1,2-benzoxazol-3-yl)piperidin-1-yl]propyl]benzenesulphonamide] | 102 |  |
| O=S(=O)(NCCCN1CCC(c2noc3cc(F)ccc23)CC1)c1ccc(F)c(Cl)c1 [Compound 331, 3-Chloro-4-fluoro-N-[3-[4-(6-fluoro-1,2-benzoxazol-3-yl)piperidin-1-yl]propyl]benzenesulphonamide] | 101 | 79 |
| O=S(=O)(NCCCN1CCC(c2noc3cc(F)ccc23)CC1)c1ccc(Cl)s1 [Compound 341, 5-Chloro-N-[3-[4-(6-fluoro-1,2-benzoxazol-3-yl)piperidin-1-yl]propyl]thiophene-2-sulphonamide] | 108 |  |
| O=S(=O)(NCCCN1CCC(c2noc3cc(F)ccc23)CC1)c1cc2ccc(Cl)cc2s1 [Compound 347, 6-Chloro-N-[3-[4-(6-fluoro-1,2-benzoxazol-3-yl)piperidin-1-yl]propyl]benzothiophene-2-sulphonamide] | 99 | 57 |
| Cc1c(S(=O)(=O)NCCCN2CCC(c3noc4cc(F)ccc34)CC2)sc2ccc(Cl)cc12 [Compound 348, 5-Chloro-N-[3-[4-(6-fluoro-1,2-benzoxazol-3-yl)piperidin-1-yl]propyl]-3-methylbenzothiophene-2-sulphonamide] | 90 |  |
| O=c1[nH]c2cccc(N3CCN(CCCNS(=O)(=O)c4ccc(Cl)cc4)CC3)c2[nH]1 [Compound 425, 4-chloro-N-[3-[4-(2-oxo-1,3-dihydrobenzimidazol-4-yl)piperazin-1-yl]propyl]-benzenesulphonamide] | 93 | −3 |
